Data from patent US8476197B2, “Aminopropenoates as fungicides” (priority 2009, dated 2013).
Some entries share one result that the patent states for a list of compounds.

Assays:
Plasmopara viticola = experiment: Plasmopara test (grapevines)/preventive; type: in vivo; details: preventive, dose of 100 ppm, evaluated 6 days after inoculation
Phytophthora infestans = type: in vivo; details: preventive, tomato, 500 ppm of active ingredient, evaluated 7 days after inoculation

| Structure (SMILES) | protection (efficacy) (Plasmopara viticola) | efficacy (Phytophthora infestans) [%] |
| --- | --- | --- |
| CCCCC(C)NC(=C(C#N)C(=O)OCC)c1cccnc1Cl (mixture of isomers) [Compound 821] | at least 70% | ≥ 70 |
| CCOC(=O)C(C#N)=C(NC(C)C(C)C)c1cccnc1Br (stereo not shown) [Compound 1545] | at least 70% | ≥ 70 |
| CCOC(=O)C(C#N)=C(NC(C)C(C)(C)C)c1cccnc1Cl (stereo not shown) [Compound 924] | at least 70% | ≥ 70 |
| CCOC(=O)C(C#N)=C(NC(C)C(C)C)c1cn(C)nc1C(F)F (stereo not shown) [Compound 933] | at least 70% | ≥ 70 |
| CCOC(=O)C(C#N)=C(NC(C)c1ccc(Cl)cn1)c1cccnc1Cl (stereo not shown) [Compound 1445] | at least 70% | ≥ 70 |
| CCOC(=O)C(C#N)=C(NC(C)C(C)C)c1cccnc1Cl (stereo not shown) [Compound 934] | at least 70% | ≥ 70 |
| CCOC(=O)C(C#N)=C(NC(C)c1nccs1)c1ccc(Cl)nc1Cl (stereo not shown) [Compound 72] | at least 70% | ≥ 70 |
| CCOC(=O)C(C#N)=C(NCc1nccs1)c1cccnc1Cl [Compound 66] | at least 70% | ≥ 70 |
| CCOC(=O)C(C#N)=C(NC(C)c1ccccn1)c1cccnc1Cl (mixture of isomers) [Compound 292] | at least 70% | ≥ 70 |
| CCOC(=O)C(C#N)=C(NC1(CC)CC1)c1cccnc1Cl [Compound 1641] | at least 70% | ≥ 70 |
| CC(C)C(C)NC(=C(C#N)C(=O)N1CCCO1)c1cccnc1Cl (stereo not shown) [Compound 1612] | at least 70% | ≥ 70 |
| CCOC(=O)C(C#N)=C(NC(C)c1ccccn1)c1ccnn1C(F)F (stereo not shown) [Compound 1646] | at least 70% | ≥ 70 |
| CCOC(=O)C(C#N)=C(NC(C)CCc1ccccc1)c1cccnc1Cl (stereo not shown) [Compound 1167] | at least 70% | ≥ 70 |
| CCOC(=O)C(C#N)=C(NC1(C)CCC1)c1cccnc1Cl [Compound 1607] | at least 70% | ≥ 70 |
| CCCCCC(C)NC(=C(C#N)C(=O)OCC)c1cccnc1Cl (stereo not shown) [Compound 1189] | at least 70% |  |
| CCOC(=O)C(C#N)=C(NC1(COc2ccccc2)CC1)c1cccnc1Cl [Compound 560] | at least 70% | ≥ 70 |
| CCOC(=O)C(C#N)=C(NC(C)c1ccn(C)n1)c1cccnc1C(F)F (racemic) [Compound 263] | at least 70% | ≥ 70 |
| CCOC(=O)C(C#N)=C(NC1(c2c(F)cccc2F)CC1)c1cccnc1Cl [Compound 543] | at least 70% | ≥ 70 |
| CCNC(=O)C(C#N)=C(NC(C)C(C)C)c1cccnc1Cl (stereo not shown) [Compound 958] | at least 70% | ≥ 70 |
| CC(C)C(C)NC(=C(C#N)C(=O)N1CCCC1)c1cccnc1Cl (stereo not shown) [Compound 1491] | at least 70% | ≥ 70 |
| CCOC(=O)C(C#N)=C(NC(C)c1nccs1)c1ccnn1C(F)F (stereo not shown) [Compound 1644] | at least 70% | ≥ 70 |
| CCOC(=O)C(C#N)=C(NC(C)c1nccs1)c1cccnc1Cl (stereo not shown) [Compound 6] | at least 70% | ≥ 70 |
| CCOC(=O)C(C#N)=C(NC(C)COCc1ccccc1)c1cccnc1Cl (stereo not shown) [Compound 1162] | at least 70% | ≥ 70 |

| Structure (SMILES) | protection (efficacy) (Plasmopara viticola) | efficacy (Phytophthora infestans) [%] |
| --- | --- | --- |
| CNC(=O)C(C#N)=C(NC(C)C(C)C)c1cccnc1Cl (stereo not shown) [Compound 989] | at least 70% | ≥ 70 |
| CCNC(=O)C(C#N)=C(NC(C)C1CC1)c1cccnc1Cl (mixture of isomers) [Compound 907] | at least 70% | ≥ 70 |
| CCOC(=O)C(C#N)=C(NC(C)c1ncccn1)c1cccnc1Cl (stereo not shown) [Compound 329] | at least 70% | ≥ 70 |
| CCNC(=O)C(C#N)=C(NC(C)C(C)C)c1cn(C)nc1C(F)F (stereo not shown) [Compound 1278] | at least 70% | ≥ 70 |
| CCOC(=O)C(C#N)=C(NC(C)c1nccs1)c1cn(C)nc1C(F)F (racemic) [Compound 34] | at least 70% | ≥ 70 |
| CCOC(=O)C(C#N)=C(NC(C)c1ccccn1)c1ccc(Cl)nc1Cl (stereo not shown) [Compound 1381] | at least 70% | ≥ 70 |
| CCOC(=O)C(C#N)=C(NC(C)c1nccs1)c1cccnc1C(F)(F)F (racemic) [Compound 232] | at least 70% | ≥ 70 |
| CCOC(=O)C(C#N)=C(NC1CC1C1CC1)c1cccnc1Cl (stereo not shown) [Compound 1634] | at least 70% | ≥ 70 |
| CCOC(=O)C(C#N)=C(NC1(CC2CC2)CC1)c1cccnc1Cl [Compound 1642] | at least 70% | ≥ 70 |
| CCOC(=O)C(C#N)=C(NC(C)C(F)(F)F)c1cn(C)nc1C(F)F (racemic) [Compound 1253] | at least 70% | ≥ 70 |
| CCOC(=O)C(C#N)=C(NC1CC1CC)c1cn(C)nc1C(F)F (stereo not shown) [Compound 1146] | at least 70% | ≥ 70 |
| COC(=O)C(C#N)=C(NC1(c2c(F)cccc2F)CC1)c1cccnc1Cl [Compound 380] | at least 70% | ≥ 70 |
| CCOC(=O)C(C#N)=C(NC(C)C1CC1)c1cccnc1Cl (mixture of isomers) [Compound 913] | at least 70% | ≥ 70 |
| CONC(=O)C(C#N)=C(NC(C)C(C)C)c1cccnc1Cl (stereo not shown) [Compound 960] | at least 70% | ≥ 70 |
| CCOC(=O)C(C#N)=C(NC(C)c1cc(Cl)ccn1)c1cccnc1Cl (stereo not shown) [Compound 1449] | at least 70% | ≥ 70 |
| CCOC(=O)C(C#N)=C(NC1(C(=O)OCC)CCC1)c1cccnc1Cl [Compound 1551] | at least 70% | ≥ 70 |
| CCOC(=O)C(C#N)=C(NC1CCC1)c1cn(C)nc1C(F)F [Compound 1123] | at least 70% | ≥ 70 |
| CCOC(=O)C(C#N)=C(NC(C)C(C)C)c1ccncc1Cl (stereo not shown) [Compound 978] | at least 70% | ≥ 70 |
| CCOC(=O)C(C#N)=C(NC(C)C(C)C)c1cccnc1C(F)F (stereo not shown) [Compound 981] | at least 70% | ≥ 70 |
| CC(C)C(C)NC(=C(C#N)C(=O)N(C)C)c1cccnc1Cl (stereo not shown) [Compound 959] | at least 70% | ≥ 70 |
| CCOC(=O)C(C#N)=C(NC(C)c1cc(Cl)cc(Cl)n1)c1cccnc1Cl (stereo not shown) [Compound 1639] | at least 70% | ≥ 70 |
| CCNC(=O)C(C#N)=C(NC(C)c1nccs1)c1ccc(Cl)nc1Cl (stereo not shown) [Compound 1471] | at least 70% | ≥ 70 |
| COC(=O)C(C#N)=C(NC(C)c1ncc(Br)cc1Cl)c1cccnc1Cl (stereo not shown) [Compound 124] | at least 70% | ≥ 70 |

| Structure (SMILES) | protection (efficacy) (Plasmopara viticola) | efficacy (Phytophthora infestans) [%] |
| --- | --- | --- |
| CC#CC(C)NC(=C(C#N)C(=O)OCC)c1cccnc1Cl (stereo not shown) [Compound 1198] | at least 70% | ≥ 70 |
| CCOC(=O)C(C#N)=C(NC(C)C(C)C)c1ccnn1C(F)F (stereo not shown) [Compound 1645] | at least 70% | ≥ 70 |
| CCOC(=O)C(C#N)=C(NC(C)C1CC1)c1cccnc1Cl (stereo not shown) [Compound 909] | at least 70% | ≥ 70 |
| C=CCNC(=O)C(C#N)=C(NC(C)C(C)C)c1cn(C)nc1C(F)F (stereo not shown) [Compound 1007] |  | ≥ 70 |
| CCOC(=O)C(C#N)=C(NC(C)c1nccs1)c1ccncc1Br (mixture of isomers) [Compound 297] |  | ≥ 70 |
| COC(=O)C(C#N)=C(NC(C)c1cc(Cl)cc(Cl)c1)c1cccnc1Cl (stereo not shown) [Compound 388] |  | ≥ 70 |
| CCOC(=O)C(C#N)=C(NC(C)c1nc2ccccc2[nH]1)c1cccnc1Cl (racemic) [Compound 279] |  | ≥ 70 |
| CC(C)NC(=O)C(C#N)=C(NC(C)c1nccs1)c1sccc1Br (stereo not shown) [Compound 214] |  | ≥ 70 |
| C#CC(C)NC(=C(C#N)C(=O)OCC)c1cccnc1Cl (stereo not shown) [Compound 1181] |  | ≥ 70 |
| CCOC(=O)C(C#N)=C(NC(C)c1cccc(C)n1)c1cccnc1Cl (stereo not shown) [Compound 1440] |  | ≥ 70 |
| CCOC(=O)C(C#N)=C(NC(C)C1CC1)c1scnc1Cl (stereo not shown) [Compound 1466] |  | ≥ 70 |
| COC(=O)C(C#N)=C(NC1CCCCNC1=O)c1cccnc1Cl (stereo not shown) [Compound 123] |  | ≥ 70 |
| CCOC(=O)C(C#N)=C(Nc1ccc(SC)cc1)c1cn(C)nc1C(F)F [Compound 474] |  | ≥ 70 |
| COC(=O)C(C#N)=C(NC(C)C(C)C)c1cn(C)nc1C(F)F (stereo not shown) [Compound 938] |  | ≥ 70 |
| CCOC(=O)C(C#N)=C(NC(C#N)c1ccccc1Br)c1cn(C)nc1C(F)F (stereo not shown) [Compound 1218] |  | ≥ 70 |
| CCOC(=O)C(C#N)=C(NC(C)C(C)=NOC)c1cccnc1Cl (stereo not shown) [Compound 1633] |  | ≥ 70 |
| CCOC(=O)C(C#N)=C(NC(C)c1cscn1)c1ccncc1F (mixture of isomers) [Compound 301] |  | ≥ 70 |
| CCOC(=O)C(C#N)=C(Nc1ccccc1OC(C)C)c1cn(C)nc1C(F)F [Compound 471] |  | ≥ 70 |
| CCOC(=O)C(C#N)=C(NC(C)c1cc(C)ccn1)c1cccnc1Cl (stereo not shown) [Compound 1442] |  | ≥ 70 |
| CCOC(=O)C(C#N)=C(NC(Cc1ncccc1C)C(F)(F)F)c1cccnc1Cl (racemic) [Compound 1262] |  | ≥ 70 |
| CCOC(=O)C(C#N)=C(NC1(c2c(F)cccc2F)CC1)c1cn(C)nc1C(F)(F)F [Compound 530] |  | ≥ 70 |
